# Some of the results follow. Most values lie at the level of the controls, where differences are scatter.
# Sequences of proteins named here, by UniProt entry; tags and fusion partners are left off. A change or cut given only in a name is not applied to a line headed by its entry.
# UniProt Q3UN04: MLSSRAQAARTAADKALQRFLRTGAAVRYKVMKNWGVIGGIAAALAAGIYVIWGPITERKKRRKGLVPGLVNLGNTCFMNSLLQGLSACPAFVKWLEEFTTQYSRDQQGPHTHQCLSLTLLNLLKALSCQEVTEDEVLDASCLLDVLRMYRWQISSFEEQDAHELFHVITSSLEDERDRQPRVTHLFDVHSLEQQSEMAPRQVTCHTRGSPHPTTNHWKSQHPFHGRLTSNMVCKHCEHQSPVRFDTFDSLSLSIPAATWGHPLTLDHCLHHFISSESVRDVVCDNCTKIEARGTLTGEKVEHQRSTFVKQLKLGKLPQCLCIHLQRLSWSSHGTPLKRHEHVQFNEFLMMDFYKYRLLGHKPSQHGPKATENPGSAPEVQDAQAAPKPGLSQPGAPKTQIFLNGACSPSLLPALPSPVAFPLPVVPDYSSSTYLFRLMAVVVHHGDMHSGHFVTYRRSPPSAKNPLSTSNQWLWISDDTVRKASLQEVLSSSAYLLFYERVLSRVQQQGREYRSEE
# UniProt Q3UN90: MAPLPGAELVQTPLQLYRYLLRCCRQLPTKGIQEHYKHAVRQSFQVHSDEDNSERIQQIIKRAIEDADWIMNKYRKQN
# UniProt Q505K2: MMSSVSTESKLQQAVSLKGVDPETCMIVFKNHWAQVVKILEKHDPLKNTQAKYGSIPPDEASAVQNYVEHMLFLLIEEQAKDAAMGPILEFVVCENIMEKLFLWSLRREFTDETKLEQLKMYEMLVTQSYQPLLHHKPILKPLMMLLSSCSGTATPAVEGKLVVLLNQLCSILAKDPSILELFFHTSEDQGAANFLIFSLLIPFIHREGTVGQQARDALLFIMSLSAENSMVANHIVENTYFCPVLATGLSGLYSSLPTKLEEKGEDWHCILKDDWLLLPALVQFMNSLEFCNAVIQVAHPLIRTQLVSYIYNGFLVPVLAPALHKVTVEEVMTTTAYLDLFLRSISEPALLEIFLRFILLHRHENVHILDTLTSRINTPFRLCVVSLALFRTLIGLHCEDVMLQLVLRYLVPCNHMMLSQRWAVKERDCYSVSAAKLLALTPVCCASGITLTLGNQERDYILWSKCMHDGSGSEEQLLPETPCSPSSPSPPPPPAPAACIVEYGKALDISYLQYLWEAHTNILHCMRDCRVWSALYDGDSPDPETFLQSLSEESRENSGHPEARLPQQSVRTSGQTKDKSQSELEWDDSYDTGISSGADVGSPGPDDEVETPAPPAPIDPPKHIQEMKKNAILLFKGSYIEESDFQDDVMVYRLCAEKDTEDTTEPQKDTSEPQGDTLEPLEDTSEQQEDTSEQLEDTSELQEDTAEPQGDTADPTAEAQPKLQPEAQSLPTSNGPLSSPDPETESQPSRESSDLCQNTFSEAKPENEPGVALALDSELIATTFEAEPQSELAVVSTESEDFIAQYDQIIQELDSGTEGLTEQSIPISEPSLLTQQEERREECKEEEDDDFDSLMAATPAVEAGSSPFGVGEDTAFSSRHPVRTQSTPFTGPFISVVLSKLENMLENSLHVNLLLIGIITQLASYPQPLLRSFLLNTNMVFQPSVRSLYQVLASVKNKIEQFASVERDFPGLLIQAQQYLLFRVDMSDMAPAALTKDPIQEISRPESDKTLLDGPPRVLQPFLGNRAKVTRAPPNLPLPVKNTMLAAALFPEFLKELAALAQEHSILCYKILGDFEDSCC
# UniProt Q3UY23: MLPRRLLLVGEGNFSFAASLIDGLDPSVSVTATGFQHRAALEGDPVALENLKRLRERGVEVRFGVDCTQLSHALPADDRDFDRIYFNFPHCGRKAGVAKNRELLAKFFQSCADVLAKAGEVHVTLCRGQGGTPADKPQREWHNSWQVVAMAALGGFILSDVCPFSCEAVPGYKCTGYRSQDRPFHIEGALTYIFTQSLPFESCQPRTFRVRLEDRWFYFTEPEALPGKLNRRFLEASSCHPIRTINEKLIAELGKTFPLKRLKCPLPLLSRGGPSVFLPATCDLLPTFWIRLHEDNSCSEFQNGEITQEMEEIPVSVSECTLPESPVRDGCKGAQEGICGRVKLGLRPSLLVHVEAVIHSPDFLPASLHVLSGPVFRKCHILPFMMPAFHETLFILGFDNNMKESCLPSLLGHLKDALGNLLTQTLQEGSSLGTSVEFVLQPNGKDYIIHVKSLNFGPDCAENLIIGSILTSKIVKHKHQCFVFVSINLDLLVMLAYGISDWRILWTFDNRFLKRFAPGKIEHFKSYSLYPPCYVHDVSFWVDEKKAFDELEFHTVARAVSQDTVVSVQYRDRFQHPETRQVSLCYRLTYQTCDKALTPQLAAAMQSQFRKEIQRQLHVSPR
# UniProt Q3UIA2: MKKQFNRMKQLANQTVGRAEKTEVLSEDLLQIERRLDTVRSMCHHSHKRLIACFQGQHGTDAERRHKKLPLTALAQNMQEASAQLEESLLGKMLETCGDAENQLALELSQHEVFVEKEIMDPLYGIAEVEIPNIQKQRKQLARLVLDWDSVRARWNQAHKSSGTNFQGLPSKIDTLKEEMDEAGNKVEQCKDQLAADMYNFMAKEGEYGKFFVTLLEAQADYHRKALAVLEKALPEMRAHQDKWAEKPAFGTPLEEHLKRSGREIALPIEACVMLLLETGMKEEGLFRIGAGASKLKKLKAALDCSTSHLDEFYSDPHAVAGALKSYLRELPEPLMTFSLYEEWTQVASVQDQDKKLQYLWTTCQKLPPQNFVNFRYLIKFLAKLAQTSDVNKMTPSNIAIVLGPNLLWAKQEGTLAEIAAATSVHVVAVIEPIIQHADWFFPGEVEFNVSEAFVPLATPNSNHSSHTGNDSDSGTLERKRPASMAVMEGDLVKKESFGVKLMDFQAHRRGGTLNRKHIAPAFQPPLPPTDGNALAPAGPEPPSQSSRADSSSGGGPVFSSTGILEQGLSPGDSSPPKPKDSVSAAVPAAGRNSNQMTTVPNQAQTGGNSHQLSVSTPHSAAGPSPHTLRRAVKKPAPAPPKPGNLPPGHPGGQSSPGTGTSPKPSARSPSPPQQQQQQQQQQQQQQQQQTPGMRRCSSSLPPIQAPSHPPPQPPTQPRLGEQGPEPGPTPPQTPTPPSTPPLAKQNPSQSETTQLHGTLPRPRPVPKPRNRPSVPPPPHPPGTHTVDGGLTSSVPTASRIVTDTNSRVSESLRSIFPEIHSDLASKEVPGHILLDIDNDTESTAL
# UniProt Q3UHH1: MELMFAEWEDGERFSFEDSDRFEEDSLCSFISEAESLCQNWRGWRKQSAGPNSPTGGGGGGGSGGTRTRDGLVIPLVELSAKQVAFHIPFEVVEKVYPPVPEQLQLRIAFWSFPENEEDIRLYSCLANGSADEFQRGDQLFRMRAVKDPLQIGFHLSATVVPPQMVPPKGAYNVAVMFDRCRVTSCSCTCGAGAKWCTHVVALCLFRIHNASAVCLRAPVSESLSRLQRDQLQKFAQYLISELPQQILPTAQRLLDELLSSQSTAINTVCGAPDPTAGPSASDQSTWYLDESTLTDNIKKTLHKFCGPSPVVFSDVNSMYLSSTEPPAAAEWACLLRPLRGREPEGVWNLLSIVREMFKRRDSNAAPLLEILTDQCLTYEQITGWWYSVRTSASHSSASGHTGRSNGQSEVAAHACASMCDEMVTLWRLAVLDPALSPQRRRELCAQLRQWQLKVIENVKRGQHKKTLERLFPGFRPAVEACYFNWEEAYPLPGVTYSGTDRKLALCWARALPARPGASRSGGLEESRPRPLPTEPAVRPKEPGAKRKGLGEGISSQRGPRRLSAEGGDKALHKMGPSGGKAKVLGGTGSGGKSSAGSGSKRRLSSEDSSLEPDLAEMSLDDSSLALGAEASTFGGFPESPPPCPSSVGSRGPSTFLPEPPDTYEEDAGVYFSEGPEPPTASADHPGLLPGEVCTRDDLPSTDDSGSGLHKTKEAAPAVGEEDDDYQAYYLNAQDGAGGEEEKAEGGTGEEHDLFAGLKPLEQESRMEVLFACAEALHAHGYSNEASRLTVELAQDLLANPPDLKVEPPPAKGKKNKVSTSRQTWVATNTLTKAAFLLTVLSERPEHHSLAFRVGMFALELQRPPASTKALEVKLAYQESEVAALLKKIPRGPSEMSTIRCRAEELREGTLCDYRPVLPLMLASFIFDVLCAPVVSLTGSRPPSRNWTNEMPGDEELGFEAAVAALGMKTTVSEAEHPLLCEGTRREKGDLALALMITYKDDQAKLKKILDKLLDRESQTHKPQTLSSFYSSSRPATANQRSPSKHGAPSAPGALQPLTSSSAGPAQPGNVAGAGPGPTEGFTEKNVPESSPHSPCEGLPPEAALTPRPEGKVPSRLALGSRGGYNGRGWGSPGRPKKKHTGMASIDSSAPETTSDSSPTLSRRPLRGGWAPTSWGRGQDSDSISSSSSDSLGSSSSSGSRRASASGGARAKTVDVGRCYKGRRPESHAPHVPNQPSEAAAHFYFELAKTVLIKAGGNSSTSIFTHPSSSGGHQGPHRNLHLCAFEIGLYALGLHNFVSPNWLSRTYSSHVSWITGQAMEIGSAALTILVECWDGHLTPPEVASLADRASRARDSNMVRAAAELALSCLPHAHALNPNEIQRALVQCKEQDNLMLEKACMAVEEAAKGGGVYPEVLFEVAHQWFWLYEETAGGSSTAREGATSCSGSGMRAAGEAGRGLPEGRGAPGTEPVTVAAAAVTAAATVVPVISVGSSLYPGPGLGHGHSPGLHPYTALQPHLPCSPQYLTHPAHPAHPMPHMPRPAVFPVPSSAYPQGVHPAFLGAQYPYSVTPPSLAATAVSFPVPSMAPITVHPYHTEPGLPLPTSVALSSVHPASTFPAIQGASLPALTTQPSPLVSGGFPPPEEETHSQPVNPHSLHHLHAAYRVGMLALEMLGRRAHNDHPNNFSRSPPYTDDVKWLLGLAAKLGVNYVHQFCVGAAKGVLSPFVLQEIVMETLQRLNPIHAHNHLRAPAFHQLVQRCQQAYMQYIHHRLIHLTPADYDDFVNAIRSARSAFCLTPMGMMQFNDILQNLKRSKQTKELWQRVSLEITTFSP
# UniProt Q3UCV8, whole entry: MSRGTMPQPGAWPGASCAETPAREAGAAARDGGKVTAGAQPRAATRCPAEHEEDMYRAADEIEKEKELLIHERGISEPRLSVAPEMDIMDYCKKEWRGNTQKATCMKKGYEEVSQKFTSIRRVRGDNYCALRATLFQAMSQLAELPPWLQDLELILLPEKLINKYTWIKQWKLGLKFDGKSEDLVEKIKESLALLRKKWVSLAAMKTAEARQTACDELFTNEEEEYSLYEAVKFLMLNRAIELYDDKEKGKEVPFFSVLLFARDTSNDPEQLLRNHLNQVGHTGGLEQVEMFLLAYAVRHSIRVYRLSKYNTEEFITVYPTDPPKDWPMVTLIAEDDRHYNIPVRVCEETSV
# UniProt Q3UAW9: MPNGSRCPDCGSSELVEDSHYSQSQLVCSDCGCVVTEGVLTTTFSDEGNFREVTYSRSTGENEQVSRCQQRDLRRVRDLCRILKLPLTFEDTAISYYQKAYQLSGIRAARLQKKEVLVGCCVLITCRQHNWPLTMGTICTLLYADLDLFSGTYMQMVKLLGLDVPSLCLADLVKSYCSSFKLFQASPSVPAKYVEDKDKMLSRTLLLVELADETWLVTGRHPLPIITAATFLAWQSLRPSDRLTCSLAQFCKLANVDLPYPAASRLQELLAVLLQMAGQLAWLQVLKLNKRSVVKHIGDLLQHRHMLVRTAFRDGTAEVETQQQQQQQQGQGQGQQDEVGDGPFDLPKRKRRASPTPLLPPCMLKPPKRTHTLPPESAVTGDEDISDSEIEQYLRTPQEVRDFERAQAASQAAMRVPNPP
# UniProt Q3UC65: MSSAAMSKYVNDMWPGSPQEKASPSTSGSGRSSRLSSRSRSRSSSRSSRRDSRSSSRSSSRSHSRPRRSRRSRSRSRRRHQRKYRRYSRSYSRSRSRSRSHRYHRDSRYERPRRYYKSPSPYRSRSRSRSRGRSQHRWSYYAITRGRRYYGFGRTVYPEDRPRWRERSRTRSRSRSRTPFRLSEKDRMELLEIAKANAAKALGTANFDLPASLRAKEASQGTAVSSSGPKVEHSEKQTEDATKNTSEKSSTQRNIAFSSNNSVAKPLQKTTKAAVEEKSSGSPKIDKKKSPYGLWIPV
# UniProt Q3UFY8: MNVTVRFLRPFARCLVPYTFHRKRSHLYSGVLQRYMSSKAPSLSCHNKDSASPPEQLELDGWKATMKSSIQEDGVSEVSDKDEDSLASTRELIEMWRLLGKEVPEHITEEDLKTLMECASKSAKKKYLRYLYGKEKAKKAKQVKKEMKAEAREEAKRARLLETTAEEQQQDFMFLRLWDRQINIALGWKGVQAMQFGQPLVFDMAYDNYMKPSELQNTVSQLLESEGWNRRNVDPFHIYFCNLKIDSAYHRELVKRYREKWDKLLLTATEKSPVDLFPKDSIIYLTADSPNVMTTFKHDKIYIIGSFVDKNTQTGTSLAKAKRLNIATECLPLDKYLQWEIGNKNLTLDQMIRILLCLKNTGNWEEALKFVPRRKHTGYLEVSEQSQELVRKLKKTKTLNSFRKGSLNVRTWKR
# Compound: CN[C@@H]1C[C@H]2O[C@@](C)([C@@H]1OC)n1c3ccccc3c3c4c(c5c6ccccc6n2c5c31)C(=O)NC4 [staurosporine]
# Assay: log2 fold change of tryptic peptide abundance, ligand vs vehicle (limited proteolysis) (log2 ratio); higher = more trypsin-susceptible (destabilized)
# Conditions: ligand concentration: 20 uM; sample: mouse liver crude lysate; replicate design: treated separately
row,Target,log2 fold change
1,"UniProt Q3UN04 (peptide sequence: DQQGPHTHQCLSLTLLNLLK, peptide start residue: 106)",0.768
2,"UniProt Q3UN90 (peptide sequence: QSFQVHSDEDNSER, peptide start residue: 42)",-0.614
3,"UniProt Q505K2 (peptide sequence: ILEKHDPLKNTQAK, peptide start residue: 39)",0.4
4,"UniProt Q4KL35 (peptide sequence: LDARPLAAR, peptide start residue: 35)",0.155
5,"UniProt Q3UY23 (peptide sequence: AALEGDPVALENLKR, peptide start residue: 39)",0.589
6,"UniProt Q3UIA2 (peptide sequence: MKQLANQTVGR, peptide start residue: 8)",-0.463
7,"UniProt Q3UHH1 (peptide sequence: AAAELALSCLPHAHALNPNEIQR, peptide start residue: 1360)",-0.267
8,"UniProt Q3UCV8 (peptide sequence: WVSLAAMK, peptide start residue: 199)",0.18
9,"UniProt Q3UAW9 (peptide sequence: AQAASQAAMR, peptide start residue: 406)",0.0423
10,"UniProt Q3UC65 (peptide sequence: DRMELLEIAK, peptide start residue: 186)",0.493
11,"UniProt Q3UFY8 (peptide sequence: ELIEMWR, peptide start residue: 91)",-0.198

# From the supplement of paper PMC12819154, “High-throughput peptide-centric local stability assay extends protein–ligand identification to membrane proteins, tissues and bacteria” (Nature Structural & Molecular Biology, 2025)
